Drawing on patent EP0155871A1, “Compounds possessing inhibiting properties in the lignin formation in plants and process for the reduction of their lignin content” (Etablissement Public dit: CENTRE NATIONAL DE LA RECHERCHE …, priority 1984, dated 1985), this text covers teneurs en chlorophilles for three compounds.

Some entries repeat one wording, which the source may state once for all of them.

The subject of this data set is plants de maïs. Kind of data set: specificity of action: general metabolism markers in treated maize plants. Format: in vivo. The following applies: plants de maïs âgés de 30 jours.
As to `COc1cc(C=CC(=O)OC(C)(C)C)ccc1O` [FTB, férulate de tertiobutyle], the teneurs en chlorophilles entry was “n'apparaissent pas significativement affectées”.
Regarding `CC(C)(C)OC(=O)C=Cc1ccc(O)cc1` [PCB, p-Coumarate de tertiobutyle], the teneurs en chlorophilles entry is reported as “n'apparaissent pas significativement affectées”.
Regarding `COc1cc(C=CC(=O)OC(C)(C)C)cc(OC)c1O` [STB, Sinapate de tertiobutyle], the teneurs en chlorophilles entry is “n'apparaissent pas significativement affectées”.
